Values from PubChem BioAssay AID720505 (Drosophila RNAi Screening Center, 2013)
Purpose: 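Genes needed for store-operated calcium entry in fly cells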 (primary screen). Cell system: Drosophila S2R+ cells. Reagents: long dsRNA against Drosophila genes. Challenge: thapsigargin (2 µM) in calcium-free buffer to empty internal stores, then 2 mM calcium added back. Measurement: 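Fluo-4 signal in 384-well plates read on a FLIPR after thapsigargin (2 µM, calcium-free) store depletion and 2 mM calcium add-back; unnormalised mean endpoint per well; screen run twice, selected wells retested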. Scale: calcium signal and retest calcium signal: higher = more calcium entry after store depletion. Rule for the call: 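About 1500 genes called as lowering calcium entry, by varying amounts, judged against per-plate control wells with STIM1 as positive and Rho1 as negative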. Meaning of the calls: active = called as lowering calcium entry; inactive = not called.
The screen tested about 20,000 reagents; below is a random part of those with a known target gene and a result. Of all reagents, about 2,100 (10%) got an active call. 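Raw plate signals without normalisation; calls rest on control-based scores that were not deposited; replicate 2 separates called from uncalled poorly.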 The numbers tell different reagents against one gene apart. Names joined by + are all predicted targets of the reagent. Not given: the amount of reagent, the time to read-out.

| calcium signal, replicate 1 | calcium signal, replicate 2 | retest calcium signal, replicate 1 | retest calcium signal, replicate 2 | Outcome | predicted target | reagent no. |
| --- | --- | --- | --- | --- | --- | --- |
| 67.9 | 66.8 | – | – | inactive | Jon65Aii | 1 |
| 134 | 115 | – | – | inactive | EndoB | 1 |
| 91.2 | 128 | – | – | inactive | CG40198 | 1 |
| 75.7 | 102 | – | – | inactive | Frl | 1 |
| 80.1 | 90.7 | 6406 | 105 | inactive | Frl | 2 |
| 191 | 106 | – | – | inactive | Gba1b | 1 |
| 112 | 167 | – | – | inactive | CG9890 | 1 |
| 141 | 68.6 | – | – | inactive | CG11309 | 1 |
| 102 | 138 | – | – | inactive | CG13048 | 1 |
| 133 | 140 | – | – | inactive | CG13375 | 1 |
| 66.7 | 87.2 | – | – | active | SmF | 1 |
| 89.2 | 85.7 | – | – | inactive | Cyt-b5-r | 1 |
| 93.8 | 162 | – | – | inactive | CG17122 | 1 |
| 164 | 147 | – | – | inactive | robl22E | 1 |
| 99 | 183 | – | – | inactive | daw | 1 |
| 124 | 83.7 | – | – | inactive | Obp57c | 1 |
| 162 | 205 | – | – | inactive | Cftr | 1 |
| 114 | 132 | – | – | inactive | CG11698 | 1 |
| 75.9 | 148 | – | – | inactive | VhaM9.7-b | 1 |
| 118 | 107 | – | – | inactive | Rme-8 | 1 |
| 136 | 116 | – | – | inactive | CG31371 | 1 |
| 200 | 168 | – | – | inactive | CG15772 | 1 |
| 129 | 123 | – | – | inactive | pigeon | 1 |
| 81.9 | 114 | – | – | inactive | betaNACtes1 | 1 |
| 147 | 144 | – | – | inactive | CG13185 | 1 |
| 56.5 | 132 | – | – | inactive | ATP8A | 1 |
| 136 | 120 | – | – | inactive | ATP8A | 2 |
| 149 | 232 | – | – | inactive | ATP8A | 3 |
| 128 | 145 | – | – | inactive | CG3288 | 1 |
| 145 | 194 | – | – | inactive | whd | 1 |
| 163 | 263 | – | – | inactive | CG10340 | 1 |
| 123 | 125 | – | – | inactive | CG18269 | 1 |
| 213 | 168 | – | – | inactive | ppk11 | 1 |
| 149 | 106 | – | – | inactive | CG31808 | 1 |
| 68 | 92.5 | – | – | inactive | Sirt7 | 1 |
| 130 | 87.8 | – | – | inactive | PIG-L | 1 |
| 72.2 | 120 | 71.9 | 91.8 | active | CG34165 | 1 |
| 118 | 107 | – | – | inactive | CG1983 | 1 |
| 217 | 154 | – | – | inactive | CG6041 | 1 |
| 107 | 78.1 | 111 | 110 | inactive | CG1965 | 1 |
| 133 | 91.1 | – | – | inactive | CG1965 | 2 |
| 60.4 | 119 | – | – | inactive | CG30015 | 1 |
| 176 | 142 | – | – | inactive | CG30015 | 2 |
| 141 | 161 | – | – | inactive | CG30015 | 3 |
| 140 | 166 | – | – | inactive | Ir47a | 1 |
| 80 | 145 | – | – | inactive | Snr1 | 1 |
| 155 | 97.1 | – | – | inactive | hui | 1 |
| 112 | 93.9 | – | – | inactive | Ir76b | 1 |
| 99.1 | 67 | – | – | inactive | ssp6 | 1 |
| 171 | 163 | – | – | inactive | CG5376 | 1 |
| 51 | 119 | – | – | active | Obp57e | 1 |
| 202 | 136 | – | – | inactive | CG16789 | 1 |
| 129 | 172 | – | – | inactive | CG33125 | 1 |
| 112 | 157 | – | – | inactive | Cyp4ac3 | 1 |
| 122 | 190 | – | – | inactive | Npc2f | 1 |
| 113 | 83.1 | – | – | inactive | CG32100 | 1 |
| 117 | 82.5 | – | – | inactive | CG32100 | 2 |
| 103 | 113 | – | – | inactive | scaf6 | 1 |
| 60.5 | 137 | – | – | inactive | scaf6 | 2 |
| 87.1 | 145 | – | – | inactive | scaf6 | 3 |
| 217 | 176 | – | – | inactive | CG7523 | 1 |
| 191 | 138 | – | – | inactive | tth | 1 |
| 222 | 113 | – | – | inactive | asRNA:CR43469 + Balat | 1 |
| 190 | 165 | – | – | inactive | CG18540 | 1 |
| 166 | 114 | – | – | inactive | Ir7g | 1 |
| 127 | 251 | – | – | inactive | ND-PDSW | 1 |
| 158 | 164 | – | – | inactive | CG15545 | 1 |
| 122 | 171 | – | – | inactive | eg | 1 |
| 117 | 137 | – | – | inactive | alpha-Est8 | 1 |
| 124 | 138 | – | – | inactive | CG42634 + CG42635 | 1 |
| 86.6 | 128 | – | – | inactive | MrgBP | 1 |
| 128 | 97.6 | – | – | inactive | Tsp42Ek | 1 |
| 104 | 75.4 | – | – | inactive | CG7550 | 1 |
| 202 | 211 | – | – | inactive | CG8708 | 1 |
| 96.3 | 177 | – | – | inactive | Kr-h1 | 1 |
| 121 | 198 | – | – | inactive | Kr-h1 | 2 |
| 124 | 143 | – | – | inactive | EMC2B | 1 |
| 158 | 140 | – | – | inactive | CLS | 1 |
| 121 | 102 | – | – | inactive | CG13794 | 1 |
| 97.2 | 94.4 | – | – | inactive | Blos3 | 1 |
| 123 | 159 | – | – | inactive | Coq9 | 1 |
| 120 | 92.3 | – | – | inactive | Bx42 | 1 |
| 98.3 | 77 | – | – | inactive | IntS9 | 1 |

Limited to “calcium signal, replicate 1” (8 entries from above):
EndoB = 134
CG40198 = 91.2
Frl #1 = 75.7
Frl #2 = 80.1
Gba1b = 191
CG9890 = 112
CG11309 = 141
CG13048 = 102
